Article PMC8630191
These are yes or no findings as the source states them, for the method shown. Binding seen in cells or lysates may run through a third protein. Here binding means that the protein was enriched with, or labelled near, the bait; the list need not be complete. Tags and fused reporters may be left off the sequences shown.

T1: 3xFLAG-tagged PP6c, wild type (human) (UniProt O00743)
T1 sequence: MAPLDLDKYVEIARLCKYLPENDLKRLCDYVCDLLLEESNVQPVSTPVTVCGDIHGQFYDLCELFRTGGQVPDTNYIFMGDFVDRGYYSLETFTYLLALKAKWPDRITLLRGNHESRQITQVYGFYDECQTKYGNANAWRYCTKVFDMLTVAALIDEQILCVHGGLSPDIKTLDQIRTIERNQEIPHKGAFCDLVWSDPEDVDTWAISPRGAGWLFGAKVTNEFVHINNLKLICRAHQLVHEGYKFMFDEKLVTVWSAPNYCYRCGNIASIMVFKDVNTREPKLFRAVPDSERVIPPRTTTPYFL

T2: 3xFLAG-tagged PP6c ΔL mutant (Leu 305 deleted) (human) (UniProt O00743)
T2 sequence: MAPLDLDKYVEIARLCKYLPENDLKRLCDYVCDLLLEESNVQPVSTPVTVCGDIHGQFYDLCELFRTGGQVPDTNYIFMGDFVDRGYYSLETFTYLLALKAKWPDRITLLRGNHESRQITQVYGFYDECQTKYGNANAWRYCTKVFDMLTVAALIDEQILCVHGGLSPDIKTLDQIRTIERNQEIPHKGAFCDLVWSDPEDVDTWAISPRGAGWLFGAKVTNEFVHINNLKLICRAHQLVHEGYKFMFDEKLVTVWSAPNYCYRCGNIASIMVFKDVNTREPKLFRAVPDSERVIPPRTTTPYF

B1: SAPS1, Sit4-associated protein subunit of PP6 (protein, UniProt Q9UPN7 1-881)
chain: MFWKFDLHTSSHLDTLLEREDLSLPELLDEEDVLQECKVVNRKLLDFLLQPPHLQAMVAWVTQEPPDSGEERLRYKYPSVACEILTSDVPQINDALGADESLLNRLYGFLQSTGSLNPLLASFFSKVMGILINRKTDQLVSFLRKKDDFVDLLLQHIGTSAIMDLLLRLLTCVERPQLRQDVVNWLNEEKIVQRLIEQIHPSKDENQHSNASQSLCDIIRLSREQMIQVQDSPEPDQLLATLEKQETIEQLLSNMFEGEQSQSVIVSGIQVLLTLLEPRRPRSESVTVNSFFSSVDGQLELLAQGALESTVSSVGALHALRPRLSCFHQLLLEPPKLEPLQMTWGMLAPPLGNTRLHVVKLLASALSANDAALTHELLALDVPNTMLDLFFHYVFNNFLHAQVEGCVSTMLSLGPPPDSSPETPIQNPVVKHLLQQCRLVERILTSWEENDRVQCAGGPRKGYMGHLTRVAGALVQNTEKGPNAEQLRQLLKELPSEQQEQWEAFVSGPLAETNKKNMVDLVNTHHLHSSSDDEDDRLKEFNFPEEAVLQQAFMDFQMQRMTSAFIDHFGFNDEEFGEQEESVNAPFDKTANITFSLNADDENPNANLLEICYKDRIQQFDDDEEEEDEEEAQGSGESDGEDGAWQGSQLARGARLGQPPGVRSGGSTDSEDEEEEDEEEEEDEEGIGCAARGGATPLSYPSPGPQPPGPSWTATFDPVPTDAPTSPRVSGEEELHTGPPAPQGPLSVPQGLPTQSLASPPARDALQLRSQDPTPPSAPQEATEGSKVTEPSAPCQALVSIGDLQATFHGIRSAPSSSDSATRDPSTSVPASGAHQPPQTTEGEKSPEPLGLPQSQSAQALTPPPIPNGSAPEGPASPGSQ
B2: SAPS2, Sit4-associated protein subunit of PP6 (protein, UniProt O75170 1-966)
chain: MFWKFDLNTTSHVDKLLDKEHVTLQELMDEDDILQECKAQNQKLLDFLCRQQCMEELVSLITQDPPLDMEEKVRFKYPNTACELLTCDVPQISDRLGGDESLLSLLYDFLDHEPPLNPLLASFFSKTIGNLIARKTEQVITFLKKKDKFISLVLKHIGTSALMDLLLRLVSCVEPAGLRQDVLHWLNEEKVIQRLVELIHPSQDEDRQSNASQTLCDIVRLGRDQGSQLQEALEPDPLLTALESQDCVEQLLKNMFDGDRTESCLVSGTQVLLTLLETRRVGTEGLVDSFSQGLERSYAVSSSVLHGIEPRLKDFHQLLLNPPKKKAILTTIGVLEEPLGNARLHGARLMAALLHTNTPSINQELCRLNTMDLLLDLFFKYTWNNFLHFQVELCIAAILSHAAREERTEASGSESRVEPPHENGNRSLETPQPAASLPDNTMVTHLFQKCCLVQRILEAWEANDHTQAAGGMRRGNMGHLTRIANAVVQNLERGPVQTHISEVIRGLPADCRGRWESFVEETLTETNRRNTVDLVSTHHLHSSSEDEDIEGAFPNELSLQQAFSDYQIQQMTANFVDQFGFNDEEFADQDDNINAPFDRIAEINFNIDADEDSPSAALFEACCSDRIQPFDDDEDEDIWEDSDTRCAARVMARPRFGAPHASESCSKNGPERGGQDGKASLEAHRDAPGAGAPPAPGKKEAPPVEGDSEGAMWTAVFDEPANSTPTAPGVVRDVGSSVWAAGTSAPEEKGWAKFTDFQPFCCSESGPRCSSPVDTECSHAEGSRSQGPEKASQASYFAVSPASPCAWNVCVTRKAPLLASDSSSSGGSHSEDGDQKAASAMDAVSRGPGREAPPLPTVARTEEAVGRVGCADSRLLSPACPAPKEVTAAPAVAVPPEATVAITTALSKAGPAIPTPAVSSALAVAVPLGPIMAVTAAPAMVATLGTVTKDGKTDAPPEGAALNGPV
B3: SAPS3, Sit4-associated protein subunit of PP6 (protein, UniProt Q5H9R7 1-873)
chain: MFWKFDLHSSSHIDTLLEREDVTLKELMDEEDVLQECKAQNRKLIEFLLKAECLEDLVSFIIEEPPQDMDEKIRYKYPNISCELLTSDVSQMNDRLGEDESLLMKLYSFLLNDSPLNPLLASFFSKVLSILISRKPEQIVDFLKKKHDFVDLIIKHIGTSAIMDLLLRLLTCIEPPQPRQDVLNWLNEEKIIQRLVEIVHPSQEEDRHSNASQSLCEIVRLSRDQMLQIQNSTEPDPLLATLEKQEIIEQLLSNIFHKEKNESAIVSAIQILLTLLETRRPTFEGHIEICPPGMSHSACSVNKSVLEAIRGRLGSFHELLLEPPKKSVMKTTWGVLDPPVGNTRLNVIRLISSLLQTNTSSINGDLMELNSIGVILNMFFKYTWNNFLHTQVEICIALILASPFENTENATITDQDSTGDNLLLKHLFQKCQLIERILEAWEMNEKKQAEGGRRHGYMGHLTRIANCIVHSTDKGPNSALVQQLIKDLPDEVRERWETFCTSSLGETNKRNTVDLVTTCHIHSSSDDEIDFKETGFSQDSSLQQAFSDYQMQQMTSNFIDQFGFNDEKFADQDDIGNVSFDRVSDINFTLNTNESGNIALFEACCKERIQQFDDGGSDEEDIWEEKHIAFTPESQRRSSSGSTDSEESTDSEEEDGAKQDLFEPSSANTEDKMEVDLSEPPNWSANFDVPMETTHGAPLDSVGSDVWSTEEPMPTKETGWASFSEFTSSLSTKDSLRSNSPVEMETSTEPMDPLTPSAAALAVQPEAAGSVAMEASSDGEEDAESTDKVTETVMNGGMKETLSLTVDAKTETAVFKSEEGKLSTSQDAACKDAEECPETAEAKCAAPRPPSSSPEQRTGQPSAPGDTSVNGPV
B4: ANKRD28, Ankyrin repeat subunit of PP6 (protein, UniProt O15084 1-1053)
chain: MAFLKLRDQPSLVQAIFNGDPDEVRALIFKKEDVNFQDNEKRTPLHAAAYLGDAEIIELLILSGARVNAKDSKWLTPLHRAVASCSEEAVQVLLKHSADVNARDKNWQTPLHIAAANKAVKCAEALVPLLSNVNVSDRAGRTALHHAAFSGHGEMVKLLLSRGANINAFDKKDRRAIHWAAYMGHIEVVKLLVSHGAEVTCKDKKSYTPLHAAASSGMISVVKYLLDLGVDMNEPNAYGNTPLHVACYNGQDVVVNELIDCGAIVNQKNEKGFTPLHFAAASTHGALCLELLVGNGADVNMKSKDGKTPLHMTALHGRFSRSQTIIQSGAVIDCEDKNGNTPLHIAARYGHELLINTLITSGADTAKRGIHGMFPLHLAALSGFSDCCRKLLSSGFDIDTPDDFGRTCLHAAAAGGNLECLNLLLNTGADFNKKDKFGRSPLHYAAANCNYQCLFALVGSGASVNDLDERGCTPLHYAATSDTDGKCLEYLLRNDANPGIRDKQGYNAVHYSAAYGHRLCLQLIASETPLDVLMETSGTDMLSDSDNRATISPLHLAAYHGHHQALEVLVQSLLDLDVRNSSGRTPLDLAAFKGHVECVDVLINQGASILVKDYILKRTPIHAAATNGHSECLRLLIGNAEPQNAVDIQDGNGQTPLMLSVLNGHTDCVYSLLNKGANVDAKDKWGRTALHRGAVTGHEECVDALLQHGAKCLLRDSRGRTPIHLSAACGHIGVLGALLQSAASMDANPATADNHGYTALHWACYNGHETCVELLLEQEVFQKTEGNAFSPLHCAVINDNEGAAEMLIDTLGASIVNATDSKGRTPLHAAAFTDHVECLQLLLSHNAQVNSVDSTGKTPLMMAAENGQTNTVEMLVSSASAELTLQDNSKNTALHLACSKGHETSALLILEKITDRNLINATNAALQTPLHVAARNGLTMVVQELLGKGASVLAVDENGYTPALACAPNKDVADCLALILATMMPVSSSSPLSSLTFNAINRYTNTSKTVSFEALPIMRNEPSSYCSFNNIGGEQEYLYTDVDELNDSDSETY
B5: ANKRD44, Ankyrin repeat subunit of PP6 (protein, UniProt Q8N8A2 1-993)
chain: MAVLKLTDQPPLVQAIFSGDPEEIRMLIHKTEDVNTLDSEKRTPLHVAAFLGDAEIIELLILSGARVNAKDNMWLTPLHRAVASRSEEAVQVLIKHSADVNARDKNWQTPLHVAAANKAVKCAEVIIPLLSSVNVSDRGGRTALHHAALNGHVEMVNLLLAKGANINAFDKKDRRALHWAAYMGHLDVVALLINHGAEVTCKDKKGYTPLHAAASNGQINVVKHLLNLGVEIDEINVYGNTALHIACYNGQDAVVNELIDYGANVNQPNNNGFTPLHFAAASTHGALCLELLVNNGADVNIQSKDGKSPLHMTAVHGRFTRSQTLIQNGGEIDCVDKDGNTPLHVAARYGHELLINTLITSGADTAKCGIHSMFPLHLAALNAHSDCCRKLLSSGFEIDTPDKFGRTCLHAAAAGGNVECIKLLQSSGADFHKKDKCGRTPLHYAAANCHFHCIETLVTTGANVNETDDWGRTALHYAAASDMDRNKTILGNAHDNSEELERARELKEKEATLCLEFLLQNDANPSIRDKEGYNSIHYAAAYGHRQCLELLLERTNSGFEESDSGATKSPLHLAAYNGHHQALEVLLQSLVDLDIRDEKGRTALDLAAFKGHTECVEALINQGASIFVKDNVTKRTPLHASVINGHTLCLRLLLEIADNPEAVDVKDAKGQTPLMLAVAYGHIDAVSLLLEKEANVDTVDILGCTALHRGIMTGHEECVQMLLEQEVSILCKDSRGRTPLHYAAARGHATWLSELLQMALSEEDCCFKDNQGYTPLHWACYNGNENCIEVLLEQKCFRKFIGNPFTPLHCAIINDHGNCASLLLGAIDSSIVSCRDDKGRTPLHAAAFADHVECLQLLLRHSAPVNAVDNSGKTALMMAAENGQAGAVDILVNSAQADLTVKDKDLNTPLHLACSKGHEKCALLILDKIQDESLINEKNNALQTPLHVAARNGLKVVVEELLAKGACVLAVDENASRSNGPRSTPGTAVQKEE

Columns and labels:
[1] = target: T1, 3xFLAG-tagged PP6c, wild type (human); test: affinity purification with mass spectrometry; 3xFLAG-tagged catalytic subunit (WT or ΔL) transfected in FreeStyle 293F cells; FLAG M2 affinity gel, 3 h at 4 °C; lysis and wash buffer 50 mM Tris pH 7.5, 500 mM NaCl, 0.5% Triton X-100; eluted with 3XFLAG peptide; label-free quantitative LC-MS/MS on unique peptides, three replicates
[2] = target: T2, 3xFLAG-tagged PP6c ΔL mutant (Leu 305 deleted) (human); test: as above

Row | Binder | binding [1] | binding [2]
1 | B1 | binds | binds
2 | B2 | binds | binds
3 | B3 | binds | binds
4 | B4 | binds | binds
5 | B5 | binds | binds
